Laboratory results reported in US3960830 (dated 1976).

What was measured:
peptide synthesis = details: whole synthesis
[1] = general procedure: solution-phase peptide synthesis; soluble polyalkylene glycol support (PEG, PPG); Boc-amino acid anhydrides; details: whole synthesis

Row | Substance | isolated yield (peptide synthesis) | crude purity (method not given) ([1]; amino acid analysis) | crude yield ([1]; calculated on Val)
1 | Arg-Pro-Lys-Pro-Gln-Gln-Phe-Phe-Gly-Leu-Met | about 35% | – | –
2 | Leu-Ala-Gly-Val | – | 68% | 65%
